Data taken from patent US7172751B2 (Immunomedics, Inc., priority 2003, dated 2007).

Legend:
[1] = general procedure: Fmoc solid-phase peptide synthesis; Sieber Amide resin; Rink Amide resin; diisopropylcarbodiimide then HBTU (double coupling); BOP/HBTU; conditions: for difficulty met: purification step; for final HPLC purity: whole synthesis
[2] = general procedure: Fmoc solid-phase peptide synthesis; Rink Amide resin; diisopropylcarbodiimide then HBTU (double coupling); BOP/HBTU; conditions: whole synthesis, scale 1.0 g, 0.6 mmol/g

Substance	difficulty met [1]	final HPLC purity [1]	isolated mass [2] [mg]
DOTA-D-Ala-D-Lys(HSG)-D-Glu-D-Lys(HSG)-NH2	due to impurities discovered after the initial purification, was repurified twice more	˜97%	
DOTA-D-Phe-D-Lys(HSG)-D-Tyr-D-Lys(HSG)-NH2	due to impurities discovered after the initial purification, was repurified twice more	˜97%	248.1
